Laboratory results: patent publication US10874684B2, “Liponucleotide-based therapy for ARDS” (Ohio State Innovation Foundation, priority 2016, dated 2020)

Test system: mock-inoculated mice (virus diluent)
Details: day 6, CDP-choline 100 μg/mouse i.p.

SMILES: C[N+](C)(C)CCOP(=O)(O)OP(=O)(O)OC[C@H]1O[C@@H](n2ccc(N)nc2=O)C(O)C1O (some centres unmarked) [CDP-CHO, Cytidine diphosphate-choline]
- HR (bpm): 730 ± 10 bpm
- SaO2 (%): 99.0 ± 0.2%
